Measurements taken from patent publication US11331314B2, “Amine substituted triazole derivatives and uses thereof” (Bayer Pharma Aktiengesellschaft, priority 2017, dated 2022).
At least one structure is not confirmed: it was looked up by name or label, or the drawing left a doubt.

Amino acid sequences for entries named in this document (tags omitted).
UniProt P37288, whole entry: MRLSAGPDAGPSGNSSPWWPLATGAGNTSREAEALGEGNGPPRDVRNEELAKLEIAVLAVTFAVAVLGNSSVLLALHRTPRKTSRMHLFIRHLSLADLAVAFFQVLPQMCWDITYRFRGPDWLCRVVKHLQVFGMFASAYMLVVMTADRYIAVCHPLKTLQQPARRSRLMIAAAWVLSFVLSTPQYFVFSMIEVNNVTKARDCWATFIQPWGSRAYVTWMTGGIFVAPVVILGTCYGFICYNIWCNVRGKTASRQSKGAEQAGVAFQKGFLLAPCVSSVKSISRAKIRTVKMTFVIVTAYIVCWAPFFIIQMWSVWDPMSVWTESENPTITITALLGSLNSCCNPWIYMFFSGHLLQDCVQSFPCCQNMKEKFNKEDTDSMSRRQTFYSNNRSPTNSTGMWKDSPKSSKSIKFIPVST

Target: human V1a receptor (Homo sapiens, UniProt P37288)
Test: Cellular in vitro assay for determining vasopressin receptor activity, V1a receptor cell line (photoprotein luminescence)
Assay type: cell-based
Conditions: selectivity ratio of the cellular IC50 values
Procedure: B-1. Cellular In Vitro Assay for Determining Vasopressin Receptor Activity
The identification of agonists and antagonists of the V1a and V2 vasopressin receptors from humans, rats and dogs as well as the quantification of the activity of the compounds of the invention is carried out using recombinant cell lines. These cell lines originally derive from a hamster's ovary epithelial cell (Chinese Hamster Ovary, CHO K1, ATCC: American Type Culture Collection, Manassas, Va. 20108, USA). The test cell lines constitutively express the human, rat or dog V1a or V2 receptors. […] The resulting vasopressin receptor cells react to stimulation of the recombinantly expressed V1a receptors by intracellular release of calcium ions, which can be quantified by the resulting photoprotein luminescence. […] The bioluminescence of the cell lines is detected using a suitable luminometer [Milligan G, Marshall F, Rees S, Trends in Pharmacological Sciences 17, 235-237 (1996)]. […]
On the day before the assay, the cells are plated out in culture medium (DMEM/F12, 2% FCS, 2 mM glutamine, 10 mM HEPES, 5 μg/ml coelenterazine) in 384-well microtiter plates and kept in a cell incubator (96% humidity, 5% v/v CO2, 37° C.). […] The resulting light signal is measured immediately in a luminometer. […]

SMILES | ratio IC50 hV2/hV1a
CC(C)(O)CNc1nc(Cn2nc(-c3ccc(Cl)cc3)n(C[C@H](O)C(F)(F)F)c2=O)nn1-c1ncccc1Cl [Example 98, 5-(4-Chlorophenyl)-2-({1-(3-chloropyridin-2-yl)-5-[(2-hydroxy-2-methylpropyl)amino]-1H-1,2,4-triazol-3-yl}methyl)-4-[(2S)-3,3,3-trifluoro-2-hydroxypropyl]-2,4-dihydro-3H-1,2,4-triazol-3-one] | 76.3
CC1(C)CN(c2nc(Cn3nc(-c4ccc(Cl)cc4)n(C[C@H](O)C(F)(F)F)c3=O)nn2CCC(F)(F)F)CCN1 [Example 114, 5-(4-Chlorophenyl)-2-{[5-(3,3-dimethylpiperazin-1-yl)-1-(3,3,3-trifluoropropyl)-1H-1,2,4-triazol-3-yl]methyl}-4-[(2S)-3,3,3-trifluoro-2-hydroxypropyl]-2,4-dihydro-3H-1,2,4-triazol-3-one] | 175.6
